Reference: patent US20240043514A1, “NOVEL METHOD FOR PRODUCING ANTIBODIES” (TSINGHUA UNIVERSITY, priority 2017, published 2024)
For at least one compound, name, drawing or mass did not settle the structure.

Tested on: PBMCs
Assay: GC-like structure formation in cultured PBMCs, light microscopy
Assay type: cell-based, human
Conditions: R848 1 μg/ml together with basic and OVA, 7 days

CCOCc1nc2c(N)nc3ccccc3c2n1CC(C)(C)O [R848, resiquimod]
GC-like structure formation: regular structures resembling GC in the spleen in vivo were found
